# Results from ChEMBL document CHEMBL4316593 (Eur J Med Chem, 2019).
# Further values from the same series stand in other lists.
# Legend:
# Assay type in all cases: cell-based
# Conditions in all cases: U-87MG ATCC
# [1] = Inhibition of RTK/PI3K/AKT/mTOR signaling in human U87 cells assessed as down regulation of SESN2 gene expression at cytotoxic IC50 measured after 48 hrs relative to control
# [2] = Inhibition of RTK/PI3K/AKT/mTOR signaling in human U87 cells assessed as down regulation of BAG3 gene expression at cytotoxic IC50 measured after 48 hrs relative to control
# [3] = Inhibition of RTK/PI3K/AKT/mTOR signaling in human U87 cells assessed as down regulation of LUCAT1 gene expression at cytotoxic IC50 measured after 48 hrs relative to control
# [4] = Inhibition of RTK/PI3K/AKT/mTOR signaling in human U87 cells assessed as down regulation of EPDR1 gene expression at cytotoxic IC50 measured after 48 hrs relative to control
# [5] = Inhibition of RTK/PI3K/AKT/mTOR signaling in human U87 cells assessed as down regulation of EIF5A2 gene expression at cytotoxic IC50 measured after 48 hrs relative to control
# [6] = Inhibition of RTK/PI3K/AKT/mTOR signaling in human U87 cells assessed as down regulation of ANKRD49 gene expression at cytotoxic IC50 measured after 48 hrs relative to control
# [7] = Inhibition of RTK/PI3K/AKT/mTOR signaling in human U87 cells assessed as down regulation of ERCC6 gene expression at cytotoxic IC50 measured after 48 hrs relative to control
# [8] = Inhibition of RTK/PI3K/AKT/mTOR signaling in human U87 cells assessed as down regulation of ADAT1 gene expression at cytotoxic IC50 measured after 48 hrs relative to control
# [9] = Inhibition of RTK/PI3K/AKT/mTOR signaling in human U87 cells assessed as down regulation of PLPBP gene expression at cytotoxic IC50 measured after 48 hrs relative to control
# [10] = Inhibition of RTK/PI3K/AKT/mTOR signaling in human U87 cells assessed as down regulation of TGFBR2 gene expression at cytotoxic IC50 measured after 48 hrs relative to control
# [11] = Inhibition of RTK/PI3K/AKT/mTOR signaling in human U87 cells assessed as down regulation of RAB22A gene expression at cytotoxic IC50 measured after 48 hrs relative to control
# [12] = Inhibition of RTK/PI3K/AKT/mTOR signaling in human U87 cells assessed as down regulation of TRAPPC10 gene expression at cytotoxic IC50 measured after 48 hrs relative to control
# [13] = Inhibition of RTK/PI3K/AKT/mTOR signaling in human U87 cells assessed as down regulation of ARPC2 gene expression at cytotoxic IC50 measured after 48 hrs relative to control
# [14] = Inhibition of RTK/PI3K/AKT/mTOR signaling in human U87 cells assessed as down regulation of PSMC3 gene expression at cytotoxic IC50 measured after 48 hrs relative to control
# [15] = Inhibition of RTK/PI3K/AKT/mTOR signaling in human U87 cells assessed as down regulation of PSMD12 gene expression at cytotoxic IC50 measured after 48 hrs relative to control
# [16] = Inhibition of RTK/PI3K/AKT/mTOR signaling in human U87 cells assessed as up regulation of MEGF6 gene expression at cytotoxic IC50 measured after 48 hrs relative to control
# [17] = Inhibition of RTK/PI3K/AKT/mTOR signaling in human U87 cells assessed as up regulation of IGFBP6 gene expression at cytotoxic IC50 measured after 48 hrs relative to control
# [18] = Inhibition of RTK/PI3K/AKT/mTOR signaling in human U87 cells assessed as up regulation of VEGFA gene expression at cytotoxic IC50 measured after 48 hrs relative to control
# [19] = Inhibition of RTK/PI3K/AKT/mTOR signaling in human U87 cells assessed as up regulation of ELFN2 gene expression at cytotoxic IC50 measured after 48 hrs relative to control
# [20] = Inhibition of RTK/PI3K/AKT/mTOR signaling in human U87 cells assessed as up regulation of KCNH3 gene expression at cytotoxic IC50 measured after 48 hrs relative to control
# [21] = Inhibition of RTK/PI3K/AKT/mTOR signaling in human U87 cells assessed as up regulation of NR2F1 antisense RNA 1 gene expression at cytotoxic IC50 measured after 48 hrs relative to control
# [22] = Inhibition of RTK/PI3K/AKT/mTOR signaling in human U87 cells assessed as up regulation of CTD small phosphatase like gene expression at cytotoxic IC50 measured after 48 hrs relative to control
# [23] = Inhibition of RTK/PI3K/AKT/mTOR signaling in human U87 cells assessed as up regulation of phosphoserine phosphatase gene expression at cytotoxic IC50 measured after 48 hrs relative to control
# [24] = Inhibition of RTK/PI3K/AKT/mTOR signaling in human U87 cells assessed as up regulation of plakophilin 3 gene expression at cytotoxic IC50 measured after 48 hrs relative to control
# [25] = Inhibition of RTK/PI3K/AKT/mTOR signaling in human U87 cells assessed as up regulation of QKI, KH domain containing RNA binding gene expression at cytotoxic IC50 measured after 48 hrs relative to control
# [26] = Inhibition of RTK/PI3K/AKT/mTOR signaling in human U87 cells assessed as up regulation of procollagen-lysine,2-oxoglutarate 5-dioxygenase 3 gene expression at cytotoxic IC50 measured after 48 hrs relative to control
# [27] = Inhibition of RTK/PI3K/AKT/mTOR signaling in human U87 cells assessed as up regulation of ring finger protein 187 gene expression at cytotoxic IC50 measured after 48 hrs relative to control
# [28] = Inhibition of RTK/PI3K/AKT/mTOR signaling in human U87 cells assessed as up regulation of ring finger protein 145 gene expression at cytotoxic IC50 measured after 48 hrs relative to control
# [29] = Inhibition of RTK/PI3K/AKT/mTOR signaling in human U87 cells assessed as up regulation of mitogen-activated protein kinase kinase kinase kinase 5 gene expression at cytotoxic IC50 measured after 48 hrs relative to control
# [30] = Inhibition of RTK/PI3K/AKT/mTOR signaling in human U87 cells assessed as up regulation of NEBL gene expression at cytotoxic IC50 measured after 48 hrs relative to control
# [31] = Inhibition of RTK/PI3K/AKT/mTOR signaling in human U87 cells assessed as up regulation of ATL3 gene expression at cytotoxic IC50 measured after 48 hrs relative to control
# [32] = Inhibition of RTK/PI3K/AKT/mTOR signaling in human U87 cells assessed as up regulation of CDK9 gene expression at cytotoxic IC50 measured after 48 hrs relative to control
smiles,measurement,setting,value
CC(=O)C(=NNc1ccccc1C#N)C(C)=O,log2FC,[1],-2.55
same,log2FC,[2],-2.41
same,log2FC,[3],-2.23
same,log2FC,[4],-1.76
same,log2FC,[5],-1.35
same,log2FC,[6],-1.18
same,log2FC,[7],-1.18
same,log2FC,[8],-1.15
same,log2FC,[9],-1.11
same,log2FC,[10],-0.893
same,log2FC,[11],-0.789
same,log2FC,[12],-0.675
same,log2FC,[13],-0.527
same,log2FC,[14],-0.465
same,log2FC,[15],-0.427
same,log2FC,[16],2.91
same,log2FC,[17],2.65
same,log2FC,[18],1.86
same,log2FC,[19],1.82
same,log2FC,[20],1.71
same,log2FC,[21],1.56
same,log2FC,[22],1.18
same,log2FC,[23],1.14
same,log2FC,[24],0.863
same,log2FC,[25],0.858
same,log2FC,[26],0.808
same,log2FC,[27],0.773
same,log2FC,[28],0.762
same,log2FC,[29],0.716
same,log2FC,[30],0.646
same,log2FC,[31],0.532
same,log2FC,[32],0.53
